# Out of some 52,000 sequences screened, about 210 (0.4%) were called active.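 How the source made its calls: active means gene whose silencing raises cell survival under the drug, median off-target-corrected z-score across its silencing RNAs 2 or more; inactive means the rest.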 The list shows a part of the results.
# Assay: Resistance to Poly (ADP-Ribose) Polymerase inhibitor: Gene Identification via Genome-wide siRNA Screen
# Settings: mouse BRCA2 R2336H ES cells, olaparib, CellTiter-Glo viability; stronger effect = higher value
# Procedure, shortened: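 Genome-wide siRNA screen (3 siRNAs/gene, 20 nM) in mouse ES cells carrying hypomorphic BRCA2 R2336H; olaparib 500 nM added 48 h post-transfection, CellTiter-Glo viability 72 h later. Normalized to plate-median negative control; MAD z-scores, gene median, seed-adjusted.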
row,Sequence,z-score
1,GGGACGAUUACCCUUAUUGTT against 1700084J12Rik,inactive: -0.0279
2,GGGAAAAAAAAAAAUCACCTT against 4831426I19Rik,inactive: -0.292
3,CCAGACGAUCUCAUGAUGUTT against 4931407G18Rik,inactive: -0.353
4,AUGAAAGCAUUCUAAGAAGTT against LOC434320,inactive: 0.452
5,GGUUCAGACAAGCAUCUAGTT against Sbp,inactive: -0.786
6,CGGGUUUUUCCAGUAGAUUTT against Ebag9,inactive: 0.593
7,GGAGGCAAAAAUGAUGCUATT against Slpi,inactive: 0.655
8,GGAUUACAUUUGUUUUACCTT against E130304F04Rik,inactive: 1.15
9,GCUAUGACAGUUAUGCUACTT against Cirbp,inactive: 2.6
10,CCCACUGUGAAGAGAGGCATT against Xlr3b,inactive: -1.96
11,GGUAAUAGAGGAGAAGAAUTT against Phc1,inactive: -1.31
12,GCUAAUUCUCAGAACUCUATT against Tas2r130,inactive: 0.0941
13,GGUGUGGACCCUAAGCUUUTT against C530028O21Rik,inactive: -0.894
14,GCUUCGUGUGCUUUACCUGTT against 6430402H13Rik,inactive: 0.851
15,GCUAGCUAGAACAAGUAAATT against Slmap,inactive: -0.317
16,GGCCGUACAUCAACAUUACTT against C1qtnf6,inactive: -0.927
17,GGAACAGAGAGUGGAGCUUTT against Rnd1,inactive: -1.16
18,GCAACGUGGUCUAUGAAUUTT against Disp2,inactive: 0.352
19,GGAUUACCCAUUUGUUCCUTT against Adam4,inactive: 0.149
20,GGAUGUGGUUUUCACUGACTT against Cat,inactive: 1.87
21,GGCUGCUCAUAUUGGUCAATT against Sphk2,inactive: -0.235
22,GGCAUCUUUCAUAAAACCGTT against 2610204G22Rik,inactive: -0.767
23,GGACUUCAAGGACUUCUACTT against Crtap,inactive: 0.0967
24,GGGACUUAUGUACAACUUCTT against Idua,inactive: 0.129
25,GGUACAGUGCAUCGACAUGTT against Eng,inactive: -0.836
26,CGUGCUCAUAAUUUUGAACTT against 2600014C01Rik,inactive: -0.0242

row,Sequence,z-score
1,AGCAUCCUAAAUUCAAAAATT against Try10l,inactive: 1.03
2,GGAAAAAAAACACUGACUGTT against Hoxa5,inactive: 0.197
3,GCAACUGGUGAUAAGGUGUTT against E030034P13Rik,inactive: -1.6
4,CGAAGGAGUCAAAACUGGGTT against Klk8,inactive: -0.352
5,GGAAGAAUGUAGGAGGAAGTT against Sln,inactive: -0.446
6,GGUUAGGUUGAUGAAUAAGTT against Eif4ebp2,inactive: -0.495
7,GGAGACCUUCAAAAAGGUGTT against Tmprss4,inactive: 0.015
8,GGAUCAUUUCUGGCAAGAGTT against Irf7,inactive: -0.0691
9,GGAGAAUCCUCAUUGACACTT against Lactb2,inactive: 0.489
10,CCGCCAGGGAAACAAAUACTT against 0610030H11Rik,inactive: -2.42
11,GGCCACUAUAACUGAUCCGTT against 4930577M16Rik,inactive: 1.95
12,GGGAAACUUGAACUUUGAUTT against Tsga2,inactive: -2.32
13,GCGGUUUCGAACAAUCACGTT against Rab8a,inactive: -0.53
14,GGGAUGUGUCCUGACUUUUTT against BC066028,inactive: -1.12
15,GGAGUUGCCAUGCUCAACATT against Olfr808,inactive: -1.39
16,GUUACCUCAGUGUUAUACUTT against Olfr45,inactive: 0.91
17,CCUAACUCACAACAAUUACTT against Olfr304,inactive: 0.65
18,GGAUUUUCAAUUCAUACCCTT against Psmb1,inactive: 2.18
19,GGGUGAGAUAAUUGAAAAGTT against Slc12a6,inactive: 0.205
20,GCGUGCGGAUAACAAAAGCTT against D11Wsu47e,inactive: 0.303
21,GGCGAAAAAUACAAAUUCCTT against Vamp1,inactive: 0.596
22,GGAGCAAGGAAAGUGGCUGTT against 2010001O09Rik,inactive: -0.475
23,GCUUUUGAAUGUGUGGACUTT against 0610033E06Rik,inactive: 1.19
24,CGAUUUGCCCAAUAAAGAATT against Scn9a,inactive: 0.365
25,GGCUAUCACAUGUAACUUCTT against Lman1l,inactive: -1.58
26,GCAAUCACCAAAUCACUAGTT against Fstl1,inactive: -1.71

row,Sequence,z-score
1,GAGACAAUUGUAACAUUCUTT against Olfr176,inactive: -0.95
2,GGUGGAUGGCUUCACGCAUTT against Calr3,inactive: 0.388
3,GGGAGGUAAGAAUCUUUAUTT against 4930548G07Rik,inactive: -0.29
4,GGGAGAAUCUAACUAAGCCTT against Sirt7,inactive: -0.952
5,GGCAUUCCUAAUGACACGGTT against Dpep3,inactive: -0.125
6,GGAUACCUAGUUCUUAGUUTT against B430216B18Rik,inactive: -0.048
7,GGAUUUUCUCUAUGCAGGCTT against BC057552,inactive: -0.273
8,GGAAAACCUCAAACCUAACTT against Oas2,inactive: -0.124
9,AAGGUGCAGAGUUACACGUTT against H2-T10,inactive: -0.306
10,GCUAUGGAGGCUAUGGAUGTT against Krtap16-9,inactive: 1.3
11,GGUCAGAAGUUAAUUUAUGTT against Rad23b,inactive: -1.23
12,GCCUAAGAAGGAUAGUAUUTT against Taf5,inactive: -0.93
13,CGAUUCAUUCAGUUUGUAATT against 4930532D21Rik,inactive: -1.19
14,GGUUCUCGAAAUAAGAAUGTT against Mcm8,inactive: 0.117
15,GCAUCUCGAUCAUAUCAUGTT against Pgm3,inactive: 1.11
16,GGAAUAUUCUAUUCCCUUUTT against Trim25,inactive: 0.694
17,GUGAAAGUCGGAUUCAGUGTT against Acat2,inactive: -1.34
18,GGAAGUAUUACCCUCAAUUTT against Zfp212,inactive: -0.125
19,CGUGACUAUUCUGAUAAGUTT against Arfrp2,inactive: 0.787
20,GGUUAGAGGGAGAAGUGAATT against Grinl1a,inactive: -1.56
21,GCUUUUGACACUUAUAUGATT against Ptk7,inactive: 0.589
22,GGCUUUGCUCGGUUUGGUATT against BC066107,inactive: -0.225
23,GCAGUUUGUUCAAAGUAGCTT against Gm78,inactive: 0.82
24,GGAUUCACAUUUCUAAAGCTT against Adcy8,inactive: 1.11
25,GGGAACUGCACAAUACAAATT against 4933415L06Rik,inactive: -0.793
26,GCCCAAGUGUGAUAAAUGCTT against Ntn4,inactive: 1.6

row,Sequence,z-score
1,CCAAGAAUGACGAUUGCUCTT against Dmn,inactive: 0.971
2,GGAGGCAUACAUGACAAAATT against C80879,inactive: -0.441
3,GCCUGUCAUGGUUAUGACCTT against Shbg,inactive: 0.554
4,GGAGAUGAAGCAAUGGCCCTT against Bmp15,inactive: 0.0144
5,GCAAAACCAUUUGAAAAUGTT against Negr1,inactive: -0.48
6,GCAAUAUGUGACAAACUUCTT against Ptpn8,inactive: 1.3
7,GGACACCAACAUAUUGUUCTT against Slc13a2,inactive: 0.104
8,GGCUAUGCAGAUAAAUAUGTT against Lctl,inactive: -0.374
9,GCGGUGUGAAGAUUGUACATT against Hsd17b3,inactive: -0.193
10,CGUACUAUACUAACACAGATT against Arl5,inactive: 0.907
11,GGUGAUCUUUUAUAUUGUGTT against Dmc1h,inactive: -0.546
12,GCUAUAAGGCUUAAUAGGGTT against BC038059,inactive: 0.943
13,GGCAGUCGGGAUUGUAAAATT against Gpr3,inactive: -0.572
14,GGGCUGAAUAAGGAACUGUTT against 1700080E11Rik,inactive: -0.374
15,CCGCAUAUUUCAAUAAAUCTT against Rpl4,inactive: -1.94
16,GGUCUUGGAUGCAAACGAUTT against Pcdhga2,inactive: -0.965
17,GGUCAAGUUCAAGUGAGGATT against Zadh1,inactive: -1.29
18,GGUCAGUCCCUAGAUUAUATT against A430096B05Rik,inactive: -0.467
19,GGUUUAGCUGCUGACUUAATT against Strn3,inactive: -1.03
20,CCAGAGAUUGGACACAUCUTT against Vps33b,inactive: 0.863
21,GCUCUGCUGUAGACGUGAATT against C130060K24Rik,inactive: 0.354
22,GGCAUCUUCCUUUAAAAAGTT against Nola1,inactive: -1.29
23,CCACCUCAGCUCUUGUGAUTT against H2-Ab1,inactive: -0.646
24,GGGUUAUUCUACGAAUGCUTT against Thumpd1,inactive: -0.297
25,GGGUGCAUGUGUCAGAUUUTT against Olfr1277,inactive: -0.167
26,GCAUGUAGCCCUAAUUUUGTT against 5730551F12Rik,inactive: 0.214

# Reformatted bar-delimited: entries from further up
row | Sequence | z-score
20 | GGUUAGAGGGAGAAGUGAATT against Grinl1a | inactive: -1.56
21 | GCUUUUGACACUUAUAUGATT against Ptk7 | inactive: 0.589
22 | GGCUUUGCUCGGUUUGGUATT against BC066107 | inactive: -0.225
23 | GCAGUUUGUUCAAAGUAGCTT against Gm78 | inactive: 0.82
24 | GGAUUCACAUUUCUAAAGCTT against Adcy8 | inactive: 1.11
25 | GGGAACUGCACAAUACAAATT against 4933415L06Rik | inactive: -0.793
26 | GCCCAAGUGUGAUAAAUGCTT against Ntn4 | inactive: 1.6
1 | CCAAGAAUGACGAUUGCUCTT against Dmn | inactive: 0.971
2 | GGAGGCAUACAUGACAAAATT against C80879 | inactive: -0.441
3 | GCCUGUCAUGGUUAUGACCTT against Shbg | inactive: 0.554
4 | GGAGAUGAAGCAAUGGCCCTT against Bmp15 | inactive: 0.0144
5 | GCAAAACCAUUUGAAAAUGTT against Negr1 | inactive: -0.48
6 | GCAAUAUGUGACAAACUUCTT against Ptpn8 | inactive: 1.3
7 | GGACACCAACAUAUUGUUCTT against Slc13a2 | inactive: 0.104
8 | GGCUAUGCAGAUAAAUAUGTT against Lctl | inactive: -0.374
9 | GCGGUGUGAAGAUUGUACATT against Hsd17b3 | inactive: -0.193
10 | CGUACUAUACUAACACAGATT against Arl5 | inactive: 0.907
11 | GGUGAUCUUUUAUAUUGUGTT against Dmc1h | inactive: -0.546
12 | GCUAUAAGGCUUAAUAGGGTT against BC038059 | inactive: 0.943
13 | GGCAGUCGGGAUUGUAAAATT against Gpr3 | inactive: -0.572
14 | GGGCUGAAUAAGGAACUGUTT against 1700080E11Rik | inactive: -0.374
15 | CCGCAUAUUUCAAUAAAUCTT against Rpl4 | inactive: -1.94
16 | GGUCUUGGAUGCAAACGAUTT against Pcdhga2 | inactive: -0.965
17 | GGUCAAGUUCAAGUGAGGATT against Zadh1 | inactive: -1.29
18 | GGUCAGUCCCUAGAUUAUATT against A430096B05Rik | inactive: -0.467
19 | GGUUUAGCUGCUGACUUAATT against Strn3 | inactive: -1.03
20 | CCAGAGAUUGGACACAUCUTT against Vps33b | inactive: 0.863
21 | GCUCUGCUGUAGACGUGAATT against C130060K24Rik | inactive: 0.354
22 | GGCAUCUUCCUUUAAAAAGTT against Nola1 | inactive: -1.29
23 | CCACCUCAGCUCUUGUGAUTT against H2-Ab1 | inactive: -0.646

# — PubChem BioAssay AID1347423 (Functional Genomics Laboratory (NCATS/FGL), 2020)
